Data published in US20170129926A1 (ABCLON, published 2017).
Read-outs that look alike come from different tables or passages of the source.

Chains of the proteins cited; added tags and fusions are not shown. Residues count along the entry.
UniProt P05231, 30-212 limits assumed: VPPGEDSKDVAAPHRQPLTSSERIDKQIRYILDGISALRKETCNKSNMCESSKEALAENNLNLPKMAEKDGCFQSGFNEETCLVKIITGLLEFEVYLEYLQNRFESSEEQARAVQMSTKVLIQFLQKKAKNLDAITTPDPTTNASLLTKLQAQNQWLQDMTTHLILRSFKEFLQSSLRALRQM

Assays:
human IL-6 [1] = biological target: T1, human IL-6 (human, UniProt P05231 30-212); test: cell-based or functional assay
human IL-6 [2] = biological target: T1, human IL-6; test: competition ELISA: blocking of preformed hIL-6/hIL-6Rα binding to hgp130
human IL-6 [3] = biological target: T1, human IL-6; test: cell-based or functional assay; remark: listed apart in the source

Binder | IC50, IL-6 dependent growth of TF-1 cells (human IL-6 [1]) [nM] | IC50 (human IL-6 [2]) [nM] | IC50, IL-6 dependent growth of TF-1 cells (human IL-6 [3]) [nM]
His6-Z14700 (designed binder) MGSSHHHHHHLQVDAKYAKEERHAWFEIHKLPNLTVDQMAAFITKLFDDPSQSSELLSEAKKLNDSQAPKVD | 0.1 | < 1.6 | 
His6-Z14712 (designed binder) MGSSHHHHHHLQVDAKYAKEEYLAWNEIHKLPNLTVDQMAAFITKLFDDPSQSSELLSEAKKLNDSQAPKVD | 0.22 | < 1.6 | 
His6-Z14862 (designed binder) MGSSHHHHHHLQVDAKYAKEEAAAWREIHLLPNLTIDQMAAFITKLFDDPSQSSELLSEAKKLNDSQAPKVD | 0.43 | < 1.6 | 
His6-Z11632 (designed binder) MGSSHHHHHHLQVDAKYAKEEREAWFEIHTLPNLTVSQMAAFISKLFDDPSQSSELLSEAKKLNDSQAPKVD | 0.12 | < 1.6 | 
His6-Z14630 (designed binder) MGSSHHHHHHLQVDAKYAKEEKFAWWEIHKLPNLTVDQVAAFITKLFDDPSQSSELLSEAKKLNDSQAPKVD | 0.087 | < 1.6 | 
Z06789-ABD (designed binder) MGSSLQVDAKYAKEERQAWWEIHSLPNLTVDQMAAFIVKLMDDPSQSSELLSEAKKLNDSQAPKVDGSLAEAKEAANAELDSYGVSDFYKRLIDKAKTVEGVEALKDAILAALP |  |  | ~100
Z06809-ABD (designed binder) MGSSLQVDAKYAKEERDAWREIHALPNLTVDQLVAFITKLFDDPSQSSELLSEAKKLNDSQAPKVDGSLAEAKEAANAELDSYGVSDFYKRLIDKAKTVEGVEALKDAILAALP |  |  | 10
Z06799-ABD (designed binder) MGSSLQVDAKYAKEEQRAWTEIHVLPNLTVQQMAAFITKLFDDPSQSSELLSEAKKLNDSQAPKVDGSLAEAKEAANAELDSYGVSDFYKRLIDKAKTVEGVEALKDAILAALP |  |  | 2.4
Z06829-ABD (designed binder) MGSSLQVDAKYAKEEQRAWTEIHVLPNLTVSQMSAFISKLFDDPSQSSELLSEAKKLNDSQAPKVDGSLAEAKEAANAELDSYGVSDFYKRLIDKAKTVEGVEALKDAILAALP |  |  | 15

Continued, values first:

IC50, IL-6 dependent growth of TF-1 cells (human IL-6 [1]) [nM] | IC50 (human IL-6 [2]) [nM] | IC50, IL-6 dependent growth of TF-1 cells (human IL-6 [3]) [nM] | Binder
0.18 | < 1.6 |  | His6-Z15036 (designed binder) MGSSHHHHHHLQVDAKYAKEEYEAWFEIHALPNLTVEQMAAFITKLFDDPSQSSELLSEAKKLNDSQAPKVD
 | < 1.6 |  | His6-Z15126 (designed binder) MGSSHHHHHHLQVDAKYAKEERNAWYEIHLLPNLTVEQMAAFITKLFDDPSQSSELLSEAKKLNDSQAPKVD
0.93 | < 1.6 |  | His6-Z15110 (designed binder) MGSSHHHHHHLQVDAKYAKEERRAWTEIHSLPNLTIDQMAAFITKLFDDPSQSSELLSEAKKLNDSQAPKVD
0.51 | < 1.6 |  | His6-Z15142 (designed binder) MGSSHHHHHHLQVDAKYAKEERMAWYEIHSLPNLTVDQMAAFITKLFDDPSQSSELLSEAKKLNDSQAPKVD
